# Measurements taken from article PMC11208138.
# The chains behind the UniProt entries cited, without tags or fusion partners.
# UniProt P08621: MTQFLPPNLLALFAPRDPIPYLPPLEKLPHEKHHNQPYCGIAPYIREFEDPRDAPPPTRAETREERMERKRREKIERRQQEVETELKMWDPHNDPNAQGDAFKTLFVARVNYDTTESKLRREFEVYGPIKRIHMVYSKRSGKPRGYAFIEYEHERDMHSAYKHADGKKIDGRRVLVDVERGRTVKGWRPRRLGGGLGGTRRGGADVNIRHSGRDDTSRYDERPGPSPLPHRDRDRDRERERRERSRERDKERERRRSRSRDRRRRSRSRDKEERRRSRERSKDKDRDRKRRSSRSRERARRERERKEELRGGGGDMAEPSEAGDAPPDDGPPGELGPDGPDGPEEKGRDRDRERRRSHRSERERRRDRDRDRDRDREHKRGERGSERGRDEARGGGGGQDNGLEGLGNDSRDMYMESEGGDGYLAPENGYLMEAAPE
# UniProt P09012: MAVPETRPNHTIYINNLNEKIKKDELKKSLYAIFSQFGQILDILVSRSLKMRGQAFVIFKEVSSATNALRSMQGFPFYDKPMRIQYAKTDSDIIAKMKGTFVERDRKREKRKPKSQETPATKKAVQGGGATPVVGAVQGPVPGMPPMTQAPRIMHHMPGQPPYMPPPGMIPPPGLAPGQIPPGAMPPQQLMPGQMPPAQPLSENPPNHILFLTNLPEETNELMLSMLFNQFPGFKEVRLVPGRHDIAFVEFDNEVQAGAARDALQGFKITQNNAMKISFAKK
# UniProt O75400: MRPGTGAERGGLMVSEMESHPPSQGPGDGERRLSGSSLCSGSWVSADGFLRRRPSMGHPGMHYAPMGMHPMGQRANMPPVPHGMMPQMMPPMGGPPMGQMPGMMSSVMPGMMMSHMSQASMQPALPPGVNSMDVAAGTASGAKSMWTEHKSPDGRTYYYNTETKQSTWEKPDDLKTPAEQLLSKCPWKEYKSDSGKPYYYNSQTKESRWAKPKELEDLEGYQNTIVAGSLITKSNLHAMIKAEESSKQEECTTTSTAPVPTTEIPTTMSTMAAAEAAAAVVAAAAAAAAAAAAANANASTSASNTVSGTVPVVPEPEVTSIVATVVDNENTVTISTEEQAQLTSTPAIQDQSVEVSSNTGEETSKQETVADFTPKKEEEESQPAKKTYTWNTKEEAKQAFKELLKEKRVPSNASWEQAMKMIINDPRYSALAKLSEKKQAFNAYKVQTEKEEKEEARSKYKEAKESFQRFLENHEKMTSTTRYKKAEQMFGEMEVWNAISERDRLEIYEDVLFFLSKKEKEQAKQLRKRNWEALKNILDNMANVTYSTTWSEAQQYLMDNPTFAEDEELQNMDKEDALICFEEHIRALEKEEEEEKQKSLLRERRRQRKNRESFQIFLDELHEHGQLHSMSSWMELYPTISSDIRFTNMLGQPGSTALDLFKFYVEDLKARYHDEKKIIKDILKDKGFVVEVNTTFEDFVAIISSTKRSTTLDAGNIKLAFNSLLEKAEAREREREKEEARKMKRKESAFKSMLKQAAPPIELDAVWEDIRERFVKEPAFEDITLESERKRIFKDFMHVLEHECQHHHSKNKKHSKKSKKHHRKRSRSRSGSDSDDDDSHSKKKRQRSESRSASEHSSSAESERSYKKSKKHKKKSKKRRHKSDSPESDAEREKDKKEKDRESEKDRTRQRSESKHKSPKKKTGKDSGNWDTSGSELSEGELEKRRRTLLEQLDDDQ
# UniProt Q07955: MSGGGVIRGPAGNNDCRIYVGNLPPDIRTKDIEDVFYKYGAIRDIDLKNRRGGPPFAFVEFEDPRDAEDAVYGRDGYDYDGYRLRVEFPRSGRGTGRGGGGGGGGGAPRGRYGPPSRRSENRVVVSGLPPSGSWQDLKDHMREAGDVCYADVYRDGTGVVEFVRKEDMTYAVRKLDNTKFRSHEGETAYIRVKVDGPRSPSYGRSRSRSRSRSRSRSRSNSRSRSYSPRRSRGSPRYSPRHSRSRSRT
# No constants are given. Whether binding was seen depends on the method and setting. In cells and extracts the contact can be indirect. Some binding calls cover weakened binding; strength is not graded here. For some of these results: Sequences can lack the tags named with a protein.
# Key:
# Assay in all cases: cross-linking; affinity-purified CE pre-B complexes crosslinked with 400 μM BS3 45 min at 18 °C, dimer peak of a glycerol gradient, trypsin digest, mass spectrometry, pLink
# [1] = target: U1-70K (human (endogenous in HeLa)) (UniProt P08621)
# [2] = target: T1, LUC7L3 (human (endogenous in HeLa)) (UniProt O95232)
# T1 sequence: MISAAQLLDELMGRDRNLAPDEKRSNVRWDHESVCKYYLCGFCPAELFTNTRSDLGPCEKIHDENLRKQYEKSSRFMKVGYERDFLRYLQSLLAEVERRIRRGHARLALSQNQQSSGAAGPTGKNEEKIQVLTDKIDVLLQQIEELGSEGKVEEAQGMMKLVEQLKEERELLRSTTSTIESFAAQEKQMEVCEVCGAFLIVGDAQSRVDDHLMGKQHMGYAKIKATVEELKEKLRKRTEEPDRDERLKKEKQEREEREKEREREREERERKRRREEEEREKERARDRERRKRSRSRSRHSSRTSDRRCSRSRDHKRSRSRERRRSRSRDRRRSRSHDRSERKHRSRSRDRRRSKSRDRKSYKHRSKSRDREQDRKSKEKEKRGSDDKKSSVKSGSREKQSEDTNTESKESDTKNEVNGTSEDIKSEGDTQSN
# [3] = target: U1-A (human (endogenous in HeLa)) (UniProt P09012)
binding [1],binding [2],binding [3],Substance
binds,binds,binds,PRPF40A (from UniProt O75400 1-957)
binds,,,SRSF1 (from UniProt Q07955 1-248)
